According to PMC3722104:
These are yes or no findings as the source states them, for the method shown. Binding seen in cells or lysates may run through a third protein. A result given as binding can be weak or reduced; the word gives no strength.

Amino acid sequences for entries named in this document (tags omitted). A change or cut given only in a name is not applied to a line headed by its entry. Residues count along the entry.
UniProt Q91ZX7: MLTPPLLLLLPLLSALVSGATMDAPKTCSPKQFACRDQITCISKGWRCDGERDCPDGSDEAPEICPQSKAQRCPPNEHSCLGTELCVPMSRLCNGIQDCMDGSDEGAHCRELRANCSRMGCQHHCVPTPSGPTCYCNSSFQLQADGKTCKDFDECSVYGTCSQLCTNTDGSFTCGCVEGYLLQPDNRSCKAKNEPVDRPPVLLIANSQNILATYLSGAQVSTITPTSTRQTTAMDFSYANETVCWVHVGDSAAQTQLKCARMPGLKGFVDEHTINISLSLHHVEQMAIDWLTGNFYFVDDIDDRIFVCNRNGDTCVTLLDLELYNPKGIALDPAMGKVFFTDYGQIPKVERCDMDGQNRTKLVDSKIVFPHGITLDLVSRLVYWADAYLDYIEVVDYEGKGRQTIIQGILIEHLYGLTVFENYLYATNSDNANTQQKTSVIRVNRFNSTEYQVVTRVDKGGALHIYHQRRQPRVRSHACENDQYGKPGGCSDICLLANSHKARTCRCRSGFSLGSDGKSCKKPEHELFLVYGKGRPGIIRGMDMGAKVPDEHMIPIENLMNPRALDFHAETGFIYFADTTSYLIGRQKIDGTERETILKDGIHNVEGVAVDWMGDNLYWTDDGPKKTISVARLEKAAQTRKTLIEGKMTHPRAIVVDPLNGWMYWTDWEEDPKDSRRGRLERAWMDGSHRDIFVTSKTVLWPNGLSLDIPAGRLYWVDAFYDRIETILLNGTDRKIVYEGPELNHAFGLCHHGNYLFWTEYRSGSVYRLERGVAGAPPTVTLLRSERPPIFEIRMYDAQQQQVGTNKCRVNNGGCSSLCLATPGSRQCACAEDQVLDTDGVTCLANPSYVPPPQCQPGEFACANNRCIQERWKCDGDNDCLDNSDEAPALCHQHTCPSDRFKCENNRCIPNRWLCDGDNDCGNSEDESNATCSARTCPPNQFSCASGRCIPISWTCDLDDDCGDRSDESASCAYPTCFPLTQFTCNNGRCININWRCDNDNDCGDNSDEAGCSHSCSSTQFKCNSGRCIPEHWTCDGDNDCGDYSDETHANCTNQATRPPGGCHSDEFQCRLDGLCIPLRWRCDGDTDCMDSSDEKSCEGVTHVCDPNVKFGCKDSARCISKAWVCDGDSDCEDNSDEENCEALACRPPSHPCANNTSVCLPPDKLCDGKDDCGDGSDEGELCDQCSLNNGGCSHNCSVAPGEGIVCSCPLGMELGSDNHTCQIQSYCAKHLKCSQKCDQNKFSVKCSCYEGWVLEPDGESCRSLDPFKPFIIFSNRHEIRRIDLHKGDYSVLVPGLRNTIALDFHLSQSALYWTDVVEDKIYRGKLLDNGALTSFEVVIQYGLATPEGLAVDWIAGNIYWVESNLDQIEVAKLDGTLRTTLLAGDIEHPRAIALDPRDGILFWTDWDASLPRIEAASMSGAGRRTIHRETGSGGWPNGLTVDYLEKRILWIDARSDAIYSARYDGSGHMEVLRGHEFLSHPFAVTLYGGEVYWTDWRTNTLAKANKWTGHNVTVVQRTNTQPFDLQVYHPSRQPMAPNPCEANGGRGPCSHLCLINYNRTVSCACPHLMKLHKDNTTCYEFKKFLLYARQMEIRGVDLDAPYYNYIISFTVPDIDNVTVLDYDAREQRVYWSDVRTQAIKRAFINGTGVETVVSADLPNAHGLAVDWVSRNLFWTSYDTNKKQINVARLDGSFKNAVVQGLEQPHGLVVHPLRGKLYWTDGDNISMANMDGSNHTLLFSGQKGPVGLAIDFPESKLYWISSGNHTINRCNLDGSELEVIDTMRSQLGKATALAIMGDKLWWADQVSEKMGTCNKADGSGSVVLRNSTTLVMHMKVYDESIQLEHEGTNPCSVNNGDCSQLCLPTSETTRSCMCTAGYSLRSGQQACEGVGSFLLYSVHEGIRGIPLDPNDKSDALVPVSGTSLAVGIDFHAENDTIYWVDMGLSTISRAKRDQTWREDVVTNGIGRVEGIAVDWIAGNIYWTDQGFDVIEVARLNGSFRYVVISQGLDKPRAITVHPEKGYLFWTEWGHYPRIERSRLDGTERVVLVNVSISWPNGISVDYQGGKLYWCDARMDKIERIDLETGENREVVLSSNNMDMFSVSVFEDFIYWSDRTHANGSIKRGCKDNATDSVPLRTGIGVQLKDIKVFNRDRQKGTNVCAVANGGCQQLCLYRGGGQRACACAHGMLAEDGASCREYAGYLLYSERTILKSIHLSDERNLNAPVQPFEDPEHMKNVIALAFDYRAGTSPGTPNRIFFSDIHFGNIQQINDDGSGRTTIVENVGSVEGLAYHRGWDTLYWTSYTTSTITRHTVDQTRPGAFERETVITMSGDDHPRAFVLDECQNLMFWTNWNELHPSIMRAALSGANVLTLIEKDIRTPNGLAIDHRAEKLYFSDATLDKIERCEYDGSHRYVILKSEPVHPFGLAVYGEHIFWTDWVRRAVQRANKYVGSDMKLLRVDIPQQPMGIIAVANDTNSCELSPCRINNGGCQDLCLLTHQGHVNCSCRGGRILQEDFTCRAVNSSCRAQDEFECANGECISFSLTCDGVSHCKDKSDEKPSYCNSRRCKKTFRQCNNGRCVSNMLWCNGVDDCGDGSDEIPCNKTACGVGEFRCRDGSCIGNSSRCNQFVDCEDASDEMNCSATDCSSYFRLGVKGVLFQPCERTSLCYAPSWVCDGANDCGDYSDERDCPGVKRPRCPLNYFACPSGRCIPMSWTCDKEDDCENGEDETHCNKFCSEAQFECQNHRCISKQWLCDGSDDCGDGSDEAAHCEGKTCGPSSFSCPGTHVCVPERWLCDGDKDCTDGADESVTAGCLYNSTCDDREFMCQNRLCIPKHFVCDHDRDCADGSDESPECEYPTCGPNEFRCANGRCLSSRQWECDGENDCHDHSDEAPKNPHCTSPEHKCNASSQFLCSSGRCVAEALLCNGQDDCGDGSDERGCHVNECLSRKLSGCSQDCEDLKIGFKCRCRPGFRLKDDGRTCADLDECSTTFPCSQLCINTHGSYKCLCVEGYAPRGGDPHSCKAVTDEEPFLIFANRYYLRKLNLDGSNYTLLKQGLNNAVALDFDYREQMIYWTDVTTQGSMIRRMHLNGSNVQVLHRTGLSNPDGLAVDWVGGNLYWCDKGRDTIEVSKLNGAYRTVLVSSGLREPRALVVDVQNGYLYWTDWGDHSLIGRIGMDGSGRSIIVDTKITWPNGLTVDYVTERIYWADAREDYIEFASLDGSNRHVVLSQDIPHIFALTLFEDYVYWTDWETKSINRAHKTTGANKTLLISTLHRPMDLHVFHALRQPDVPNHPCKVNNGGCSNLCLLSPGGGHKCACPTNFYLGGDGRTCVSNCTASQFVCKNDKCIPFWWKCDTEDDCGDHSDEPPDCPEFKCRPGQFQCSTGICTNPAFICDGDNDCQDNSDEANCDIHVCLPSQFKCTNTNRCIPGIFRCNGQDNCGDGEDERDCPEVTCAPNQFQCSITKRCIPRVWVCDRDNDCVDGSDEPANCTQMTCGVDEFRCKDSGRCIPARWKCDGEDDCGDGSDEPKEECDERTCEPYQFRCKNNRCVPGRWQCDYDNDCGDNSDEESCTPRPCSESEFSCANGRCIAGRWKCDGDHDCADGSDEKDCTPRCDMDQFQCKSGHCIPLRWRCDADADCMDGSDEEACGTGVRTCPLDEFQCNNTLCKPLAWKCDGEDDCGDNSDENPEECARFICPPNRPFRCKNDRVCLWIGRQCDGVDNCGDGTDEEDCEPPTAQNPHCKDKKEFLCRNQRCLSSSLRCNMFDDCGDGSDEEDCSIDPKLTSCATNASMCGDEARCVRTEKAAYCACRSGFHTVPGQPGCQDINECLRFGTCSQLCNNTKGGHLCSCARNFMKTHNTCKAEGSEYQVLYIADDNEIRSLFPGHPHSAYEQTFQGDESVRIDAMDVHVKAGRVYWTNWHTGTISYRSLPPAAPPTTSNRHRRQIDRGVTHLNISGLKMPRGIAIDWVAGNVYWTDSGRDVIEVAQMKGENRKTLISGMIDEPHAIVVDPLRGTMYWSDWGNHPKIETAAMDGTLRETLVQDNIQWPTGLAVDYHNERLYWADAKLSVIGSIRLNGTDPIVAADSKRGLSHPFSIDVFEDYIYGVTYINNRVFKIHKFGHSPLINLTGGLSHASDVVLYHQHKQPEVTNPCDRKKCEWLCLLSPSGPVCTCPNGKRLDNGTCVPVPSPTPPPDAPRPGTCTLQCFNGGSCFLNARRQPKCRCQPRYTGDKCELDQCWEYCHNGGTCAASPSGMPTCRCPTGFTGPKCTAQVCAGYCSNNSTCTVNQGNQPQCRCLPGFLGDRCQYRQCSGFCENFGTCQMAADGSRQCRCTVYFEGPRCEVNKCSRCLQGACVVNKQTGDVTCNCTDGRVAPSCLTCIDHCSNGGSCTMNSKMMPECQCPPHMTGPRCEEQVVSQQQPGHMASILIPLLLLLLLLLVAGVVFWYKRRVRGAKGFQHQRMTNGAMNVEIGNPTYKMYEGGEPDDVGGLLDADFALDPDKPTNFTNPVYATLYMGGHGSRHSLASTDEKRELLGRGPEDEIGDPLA
UniProt Q01097, residues 27-1482: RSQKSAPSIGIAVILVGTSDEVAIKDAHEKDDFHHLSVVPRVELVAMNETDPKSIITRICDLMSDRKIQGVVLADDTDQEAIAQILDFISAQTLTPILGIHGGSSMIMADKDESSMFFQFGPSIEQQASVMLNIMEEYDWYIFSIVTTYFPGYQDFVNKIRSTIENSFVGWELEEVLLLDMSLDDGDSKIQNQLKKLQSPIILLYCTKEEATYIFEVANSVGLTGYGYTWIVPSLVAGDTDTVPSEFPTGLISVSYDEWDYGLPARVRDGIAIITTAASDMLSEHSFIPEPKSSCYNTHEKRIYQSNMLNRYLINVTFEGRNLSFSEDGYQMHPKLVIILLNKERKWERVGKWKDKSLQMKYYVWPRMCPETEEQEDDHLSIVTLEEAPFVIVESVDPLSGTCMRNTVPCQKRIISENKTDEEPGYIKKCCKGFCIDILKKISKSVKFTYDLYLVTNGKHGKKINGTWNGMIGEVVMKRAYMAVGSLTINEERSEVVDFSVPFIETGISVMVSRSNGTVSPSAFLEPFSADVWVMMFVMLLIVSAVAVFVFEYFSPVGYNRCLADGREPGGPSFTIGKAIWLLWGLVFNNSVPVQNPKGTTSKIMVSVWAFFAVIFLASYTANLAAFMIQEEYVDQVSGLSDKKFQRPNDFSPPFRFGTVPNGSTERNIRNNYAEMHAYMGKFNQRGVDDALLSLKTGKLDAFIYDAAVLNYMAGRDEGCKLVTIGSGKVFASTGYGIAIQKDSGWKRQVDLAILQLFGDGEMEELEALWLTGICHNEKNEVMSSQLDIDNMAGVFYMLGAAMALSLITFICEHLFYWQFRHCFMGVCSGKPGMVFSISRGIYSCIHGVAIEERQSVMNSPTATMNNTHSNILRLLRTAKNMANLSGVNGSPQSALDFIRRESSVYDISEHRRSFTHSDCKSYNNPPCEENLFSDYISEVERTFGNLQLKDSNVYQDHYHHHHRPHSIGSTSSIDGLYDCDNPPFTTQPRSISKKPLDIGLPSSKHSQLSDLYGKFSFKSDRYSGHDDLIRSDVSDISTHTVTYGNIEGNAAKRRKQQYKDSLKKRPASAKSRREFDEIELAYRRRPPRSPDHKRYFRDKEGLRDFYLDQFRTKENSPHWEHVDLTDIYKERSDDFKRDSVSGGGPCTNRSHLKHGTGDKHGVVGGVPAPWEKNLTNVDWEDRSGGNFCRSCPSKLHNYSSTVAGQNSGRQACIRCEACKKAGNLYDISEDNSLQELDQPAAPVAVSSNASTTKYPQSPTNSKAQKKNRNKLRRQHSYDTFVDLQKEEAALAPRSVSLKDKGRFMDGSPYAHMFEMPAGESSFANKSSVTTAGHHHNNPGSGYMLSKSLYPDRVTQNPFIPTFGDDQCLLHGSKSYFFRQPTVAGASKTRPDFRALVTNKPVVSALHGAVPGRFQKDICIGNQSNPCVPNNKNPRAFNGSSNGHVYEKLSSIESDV

Key:
[1] = target: LRP1 with alanine substituted NPxY2 motif (LRP1ΔNPxY2) (mouse (endogenous in primary cortical neurons)) (UniProt Q91ZX7); assay: co-IP; neuronal lysates in RIPA buffer with protease inhibitors, 100 µg protein treated with 1000 units calf intestinal phosphatase (CIP) in phosphatase buffer (50 mM Tris-HCl, 100 mM NaCl, 10 mM MgCl2, 1 mM DTT, pH 7.9) at 37°C for 30 min before immunoprecipitation of LRP1 and Western blot
[2] = target: LRP1 with alanine substituted NPxY2 motif (LRP1ΔNPxY2) (mouse (endogenous in primary cortical neurons)) (UniProt Q91ZX7); assay: co-IP; lysates of primary cortical neurons (WT or LRP1ΔNPxY2) in RIPA buffer with protease and phosphatase inhibitors; equal amounts of total lysate (80 µg) precipitated with polyclonal LRP1 antibody 1704 and protein G sepharose at 4°C overnight; Western blot for NR1, NR2B or PSD95

binding [1]: binds | binding [2]: binds
Substance: NMDA receptor subunit 2B (NR2B) (from UniProt Q01097 27-1482)
